Reference: US7754272B2, “Local drug delivery” (Biocompatibles IK Limited, priority 1999, dated 2010)
For some assays here: The name of at least one read-out is uncertain. For some assays here: At least one compound was matched to its structure with a doubt left.

Key:
[1] = Loading and release from quater polymer membrane; assay type: physicochemical; conditions: loaded from 1:1 ethanol:water, FIG. 5
[2] = Rapamycin loading of polymer pre-coated stents; assay type: physicochemical; conditions: stent preloaded on balloon catheter, dipped 5 minutes in 55 g/l, expanded
[3] = Rapamycin elution into agitated PBS; assay type: physicochemical
[4] = Rapamycin flow elution in PBS at 37° C.; assay type: physicochemical; conditions: after 24 hours
[5] = Dexamethasone phosphate and dexamethasone loading and elution, pre-coated stents

With `OCCN(CCO)c1nc(N2CCCCC2)c2nc(N(CCO)CCO)nc(N3CCCCC3)c2n1` [Dipyridamole, dipyridamole] the “half life for release” value [1] was 5 h.

For `CO[C@H]1C[C@@H]2CC[C@@H](C)[C@@](O)(O2)C(=O)C(=O)N2CCCC[C@H]2C(=O)O[C@H]([C@H](C)C[C@@H]2CC[C@@H](O)[C@H](OC)C2)CC(=O)[C@H](C)/C=C(\C)[C@@H](O)[C@@H](OC)C(=O)[C@H](C)C[C@H](C)/C=C/C=C/C=C/1C` [Rapamycin], the “loading level of premounted stents” value [2] was “substantially the same as the levels achieved by loading un-mounted stents of the same type”, the “Cumulative rapamycin eluted per stent/μg” value ([3]; Test 9.1, 0 min) was 0 µg and the “Cumulative rapamycin eluted per stent/μg” value ([3]; Test 9.1, 5 min) was 1.6 ± 0.5 µg. For the same compound, the “Cumulative rapamycin eluted per stent/μg” value ([3]; Test 9.1, 15 min) was 7.4 ± 1.9 µg, the “Cumulative rapamycin eluted per stent/μg” value ([3]; Test 9.1, 30 min) was 15.9 ± 3.1 µg and the “Cumulative rapamycin eluted per stent/μg” value ([3]; Test 9.1, 60 min) was 26.2 ± 3.3 µg. The “Rapamycin on stent/μg” value ([3]; Test 9.1, post-elution, 60 min) was 37 ± 13 µg, the “Rapamycin on stent/μg” value ([3]; Test 9.1, pre-elution, 0 min) was 47 ± 3 µg and the “Rapamycin on stent/μg” value ([3]; Test 9.2 (loaded 30 minutes in 55 g/l), pre-elution, 0 min) was 104 ± 20 µg. The “Cumulative rapamycin eluted per stent/μg” value ([3]; Test 9.2, 0 min) was 0 µg, the “Cumulative rapamycin eluted per stent/μg” value ([3]; Test 9.2, 5 min) was 1.0 ± 0.1 µg and the “Cumulative rapamycin eluted per stent/μg” value ([3]; Test 9.2, 15 min) was 4.8 ± 0.2 µg. For the same compound, the “Cumulative rapamycin eluted per stent/μg” value ([3]; Test 9.2, 30 min) was 10.2 ± 0.5 µg, the “Cumulative rapamycin eluted per stent/μg” value ([3]; Test 9.2, 60 min) was 18.5 ± 1.2 µg and the “Cumulative rapamycin eluted per stent/μg” value ([3]; Test 9.2, 120 min) was 29.2 ± 1.7 µg. The “Rapamycin on stent/μg” value ([3]; Test 9.2, post-elution, 120 min) was 84 ± 21 µg and the “share of total drug eluted from the stent” value [4] was “more than 99%”.

For `C[C@@H]1C[C@H]2[C@@H]3CCC4=CC(=O)C=C[C@]4(C)[C@@]3(F)[C@@H](O)C[C@]2(C)[C@@]1(O)C(=O)COP(=O)(O)O` [dexamethasone phosphate, Dexamethasone phosphate], the “half life of the drug release” value ([5]; elution into aqueous medium) was “around 5 minutes”.

For `C[C@@H]1C[C@H]2[C@@H]3CCC4=CC(=O)C=C[C@]4(C)[C@@]3(F)[C@@H](O)C[C@]2(C)[C@@]1(O)C(=O)CO` [dexamethasone, Dexamethasone], the share released ([5]; by around 3 hours) was “Around 90%”.
